Experimental findings from PMC5413348, “Structure of Fam20A reveals a pseudokinase featuring a unique disulfide pattern and inverted ATP-binding” (eLife, 2017) are described below.

The target of the experiment is Fam20A wild type, Flag-tagged or V5-tagged, expressed in U2OS cells (human) (UniProt Q96MK3). Kind of experiment: co-IP; Flag- and V5-tagged proteins co-expressed in U2OS cells, co-immunoprecipitated, immunoblotting.

These are yes or no findings as the source states them, for the method shown. In cells and extracts the contact can be indirect. Some results given as binding are weak or reduced against the parent protein; the word gives no strength. Tags and fused reporters may be left off the sequences shown.

B1: Fam20A wild type, Flag-tagged or V5-tagged, expressed in U2OS cells (protein, UniProt Q96MK3 34-541)
chain: QLRPRERPRGCPCTGRASSLARDSAAAASDPGTIVHNFSRTEPRTEPAGGSHSGSSSKLQALFAHPLYNVPEEPPLLGAEDSLLASQEALRYYRRKVARWNRRHKMYREQMNLTSLDPPLQLRLEASWVQFHLGINRHGLYSRSSPVVSKLLQDMRHFPTISADYSQDEKALLGACDCTQIVKPSGVHLKLVLRFSDFGKAMFKPMRQQRDEETPVDFFYFIDFQRHNAEIAAFHLDRILDFRRVPPTVGRIVNVTKEILEVTKNEILQSVFFVSPASNVCFFAKCPYMCKTEYAVCGNPHLLEGSLSAFLPSLNLAPRLSVPNPWIRSYTLAGKEEWEVNPLYCDTVKQIYPYNNSQRLLNVIDMAIFDFLIGNMDRHHYEMFTKFGDDGFLIHLDNARGFGRHSHDEISILSPLSQCCMIKKKTLLHLQLLAQADYRLSDVMRESLLEDQLSPVLTEPHLLALDRRLQTILRTVEGCIVAHGQQSVIVDGPVEQLAPDSGQANLTS
Turning to B1, the binding result was “binds”.
